Laboratory results from patent US20260232797A1.
These are yes or no findings as the source states them, for the method shown. Some binding calls cover weakened binding; strength is not graded here. Values belong to the binder of their own block, whether it stands above or below them.

Sequences of proteins named here, by UniProt entry; tags and fusion partners are left off. A change or cut given only in a name is not applied to a line headed by its entry.
UniProt O76036: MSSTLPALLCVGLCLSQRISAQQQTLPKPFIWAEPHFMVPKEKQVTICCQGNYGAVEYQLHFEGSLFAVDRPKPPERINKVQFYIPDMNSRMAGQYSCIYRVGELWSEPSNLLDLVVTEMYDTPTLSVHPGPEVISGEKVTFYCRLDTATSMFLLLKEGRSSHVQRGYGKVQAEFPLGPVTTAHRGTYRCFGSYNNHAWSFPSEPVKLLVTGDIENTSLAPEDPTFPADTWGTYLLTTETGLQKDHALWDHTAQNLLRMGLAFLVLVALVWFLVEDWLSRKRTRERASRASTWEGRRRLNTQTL

Target: Human 6xHis tagged NKp46 recombinant protein (human) (UniProt O76036)
Experiment: SPR (Biacore T100) competition study with recombinant human NKp46

binding: binds
B1: NKp46-2 (parental human IgG1 chimeric anti-NKp46 antibody) (antibody, V domains shown)
VH: EVQLQESGPGLVKPSQSLSLTCTVTGYSITSDYAWNWIRQFPGNKLEWMGYITYSGSTSYNPSLESRISITRDTSTNQFFLQLNSVTTEDTATYYCARGGYYGSSWGVFAYWGQGTLVTVSA
VL: DIQMTQSPASLSASVGETVTITCRVSENIYSYLAWYQQKQGKSPQLLVYNAKTLAEGVPSRFSGSGSGTQFSLKINSLQPEDFGSYYCQHHYGTPWTFGGGTKLEIK

binding: binds
B2: NKp46-3 (parental human IgG1 chimeric anti-NKp46 antibody) (antibody, V domains shown)
VH: EVQLQQSGPELVKPGASVKISCKTSGYTFTEYTMHWVKQSHGKSLEWIGGISPNIGGTSYNQKFKGKATLTVDKSSSTAYMELRSLTSEDSAVYYCARRGGSFDYWGQGTTLTVSS
VL: DIVMTQSPATLSVTPGDRVSLSCRASQSISDYLHWYQQKSHESPRLLIKYASQSISGIPSRFSGSGSGSDFTLSINSVEPEDVGVYYCQNGHSFPLTFGAGTKLELK
